This assay addresses T1, MARCHF5 (human (endogenous in BC-3)) (UniProt Q9NX47).
T1 sequence: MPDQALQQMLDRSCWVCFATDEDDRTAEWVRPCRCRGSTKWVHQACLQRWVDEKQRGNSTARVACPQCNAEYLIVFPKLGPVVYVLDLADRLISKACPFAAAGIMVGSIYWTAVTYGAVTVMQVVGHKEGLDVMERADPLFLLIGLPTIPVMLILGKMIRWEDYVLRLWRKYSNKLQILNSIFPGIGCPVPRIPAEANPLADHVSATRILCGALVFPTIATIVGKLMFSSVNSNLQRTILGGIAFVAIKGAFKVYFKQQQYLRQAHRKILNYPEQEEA
Put plainly: co-IP; reciprocal co-IP of endogenous proteins from BC-3 cell lysate; IP buffer (25 mM HEPES, 100 mM NaCl, 10 mM CaCl2, 5 mM MgCl2) with 1% digitonin; anti-MARCHF5 or anti-NOXA antibody overnight at 4°C, Protein A/G magnetic beads; Western blot for MARCHF5 or NOXA. For orientation: In western blotting, separated proteins are transferred to a membrane and probed.

Results are given in words; binding and its absence hold for the method and conditions named. Binding seen in cells or lysates may run through a third protein. Some results given as binding are weak or reduced against the parent protein; the word gives no strength.

B1: NOXA (protein, UniProt Q13794 1-54)
chain: MPGKKARKNAQPSPARAPAELEVECATQLRRFGDKLNFRQKLLNLISKLFCSGT
As for B1, the binding entry is “binds”.

The values above are taken from paper doi:10.1101/2024.09.23.614413.
